Screen size: about 53,000 sequences; about 3,700 (7%) were called active.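 The calls were made as follows: active = gene knockdowns whose robust z-score for IL-1 alpha signal is at least 2 or at most -2, so actives lie on both sides; inactive = the rest.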 This is one part of the list.

Consider 68 sequences from PubChem BioAssay AID1508600 (Functional Genomics Laboratory (NCATS/FGL), 2020).

The experiment can be described thus: Components of the Cytosolic LPS Sensing Pathway: Gene Identification via Genome-wide siRNA Screen.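 Also: robust z of the log signal after scaling to non-targeting control siRNA wells of the plate.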 The settings on record: RAW264.7 macrophages, IL-1a HTRF, actives lie on both sides, screened at 100 nM (by protocol), cells primed 5 h with Pam3CSK4 first. The procedure, abridged:
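IL-1a HTRF of supernatants after 24 hour LipidA transfection of Pam3CSK4-primed (5 hours) RAW264.7 cells, 48h post-siRNA transfection (100 nM). Scores: percent of plate negative-control median, then log-based robust z-score.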
On to GGUCACAGCAAGUUAAUAATT against Ranbp9, for which the z-score is active: -2.1.

On to GGACAAGCUAGAAUUUGCCTT against Smim12, for which the z-score is inactive: -0.298.

Regarding GGCCUGUUUUUAAAAAGUCTT against Ddx51, the z-score was inactive: 1.95.

Take GCUCGAGUGUAAGAUCUGUTT against Rnf182: the z-score was inactive: 0.355.

For GGUCAGACAACUCAGGAAGTT against Tnfrsf13b, the z-score was inactive: -1.98.

As for GCUUCAUCUUACCUACUCATT against Synb, the z-score is inactive: -0.825.

As for GGGCCAGAAGAAGAGUCGATT against Mllt6, the z-score was inactive: -0.304.

GCUGCAUUACAAGCCCAACTT against Zfp414: the z-score is inactive: -0.218.

With GGUCCGAUACAUCUAAACUTT against Cxcl11, the z-score was inactive: 0.455.

Consider GCGGCUAAAUAUCAACACUTT against Eepd1, for which the z-score was inactive: -0.657.

GGGUUUCUUGUUGGUUUUATT against Dock5: the z-score is active: 2.29.

As to GCUCGAUAUAAUUUCACACTT against Neto1, the z-score was inactive: -0.75.

Turning to GCAAAAACAGGAUCACCCATT against Lrig1, the z-score is inactive: -0.421.

Take GGACCUAUAGUUCAACAAGTT against Pcf11: the z-score was inactive: 1.08.

For the sequence GGAUUCAUAAAAGAAGCAATT against Zfp90, the z-score was inactive: 0.8.

In the case of CCCUGGACAUUCUAAUUACTT against Lrfn2, the z-score is inactive: -1.71.

Turning to GGUAGAAAAUGAUACGUCUTT against Pdcd1lg2, the z-score was inactive: 0.267.

GGAACAUCACUAACAAGUCTT against Cacna1g: the z-score is inactive: -0.648.

In the case of GGUGCAGAUCCCAAAUCUGTT against Zc3h15, the z-score was inactive: 1.14.

Consider GGAUGAUGACAUGAAGUUATT against Nlrp5, for which the z-score was inactive: 0.239.

Regarding GGGAAUUGAUCUAAUUGAATT against E2f5, the z-score is inactive: 1.71.

In the case of GCCAAGCCAUCUCAUUAAATT against Wdr18, the z-score was inactive: -0.724.

On to GUUUUACAAAUUCCUCCAUTT against Olfr1447, for which the z-score was inactive: 0.345.

On to CGAGUGGCUACUUUCCACUTT against Olfr152, for which the z-score is inactive: 0.311.

Take GAUGUGGCACCCAAACAUCTT against Cdc34: the z-score is inactive: -0.418.

Turning to GCUAAACGAGUUAUUGGUGTT against Ecpas, the z-score was inactive: 0.829.

For GGCGAAAAGCGACGCGGCCTT against Basp1, the z-score was inactive: 0.682.

GUUACUUGAAAAUUGGACATT against Vmn1r58: the z-score was inactive: -0.104.

In the case of GCUAAGUUGGAAUUUCCACTT against Chtop, the z-score is active: 2.05.

Consider CGGCUCUUAACAUUUUCAGTT against Eef2, for which the z-score is inactive: 0.559.

As for GGCGACAUUACAGAAUUGGTT against Iqsec2, the z-score was inactive: -0.189.

For the sequence GCAAAGCCUUACCAUGUAATT against Ighg, the z-score was inactive: 1.33.

As for CCAAUCCAAACGAAGUUAATT against Rgs9, the z-score was inactive: -0.977.

As to GCACUAAGUCCCAUGUGUCTT against Trim11, the z-score is inactive: -1.01.

Consider UGUGGAACCCAGCACUUUUTT against Olfr458, for which the z-score is inactive: 0.562.

As for GGCCUAAGGCUGUGAAUGUTT against D2hgdh, the z-score was active: -2.59.

On to GGUGUGUUUGCUAUUUCCATT against Olfr259, for which the z-score is inactive: 0.4.

As for GGAAGCAAACUUAAAGUGUTT against Ewsr1, the z-score was active: 2.17.

As for CCUCCUAUUUGGACAUUGCTT against Ints6l, the z-score was inactive: 0.261.

GGUUGAUAAAGUUUGAGUGTT against Sybu: the z-score was inactive: -0.392.

On to GUCAAAUAUCCAUUAGAAGTT against Scgb2b26, for which the z-score was inactive: 0.271.

Consider GGUGGCCAAACAGGAAAAGTT against Fau, for which the z-score is inactive: 0.91.

On to “GGGAAAAUAUCAGCUCAAUTT against D930048N14Rik”, for which the z-score was active: -2.63.

In the case of GGCAAAGACGACCUCUCACTT against Vtcn1, the z-score was inactive: -1.56.

For GGCCAAGCAUUACAUUUAUTT against Srp54a, the z-score was inactive: 0.255.

As to CCACCGUACUAAACUAUUCTT against Emilin1, the z-score was inactive: 1.97.

In the case of CCCUAAGAAUCCUUGUUCUTT against Vmn1r180, the z-score was inactive: -0.0605.

As to GGAGUCCUAGAACACACAGTT against Snap29, the z-score was inactive: -1.79.

In the case of GCCUUGUAUCGUCAUGUGATT against Card14, the z-score is inactive: 0.00832.

Regarding GGCUAUAAAAGGUACUGAGTT against Myocd, the z-score was inactive: -0.864.

Take GGAGCUUGAUUCAGGAUGGTT against Ttc3: the z-score is inactive: -0.137.

As for GGCAUGAAUAUGCAUUUAGTT against Arrdc3, the z-score is active: -3.65.

Turning to CGAUUUCAUCGAACACUUCTT against Ccnd1, the z-score was inactive: 1.37.

For GCGAGUGUAUCUCAACAGCTT against Pitpnc1, the z-score was inactive: 0.546.

Consider GGCUAAGUACGUCAAGAGCTT against Fam110a, for which the z-score is inactive: -1.09.

As for GGAAGUUAUAAAACAGAACTT against Inpp1, the z-score was inactive: 0.372.

For the sequence GCCAUGUUCUUUGCUCCCATT against Pigl, the z-score was inactive: -1.8.

CGAAUUUUGGAGAUGUAUGTT against Ddias: the z-score is inactive: 0.376.

Take GGUUGUUCUUAACAUAACCTT against Ginm1: the z-score is inactive: 0.0306.

For the sequence GGACCUGGAAAUAAUUGUUTT against Pex5l, the z-score was inactive: 0.574.

Consider GGUUGAUGCCGUGAACUCUTT against Pdxk, for which the z-score is inactive: -0.634.

For the sequence CCUGCGUUAAGUGAUAAAGTT against Blm, the z-score was inactive: 0.171.

Take “GCCGCACUGUAACUUCAUCTT against D830039M14Rik”: the z-score is inactive: 0.896.

CCCACGAAGCUAAGUGGAATT against Stkld1: the z-score was inactive: 0.067.

On to GGUAAAGUGACCGAACACUTT against Tigar, for which the z-score is inactive: 1.02.

Consider GGAGUUUGUCAACUUCUUCTT against Mcoln3, for which the z-score is inactive: -0.716.

Take CCUAUAAAGACUUAACGAATT against Mettl24: the z-score was inactive: 0.947.

For GGUGAGUCAACUGUAUUUCTT against Poc1a, the z-score is inactive: -0.342.
